According to publication PMC2640461:
Read-outs that look alike come from different tables or passages of the source. Results are given in words; binding and its absence hold for the method and conditions named. In cells and extracts the contact can be indirect. Some results given as binding are weak or reduced against the parent protein; the word gives no strength. One block for each molecule: values may come before it.

Amino acid sequences for entries named in this document (tags omitted).
UniProt Q08297: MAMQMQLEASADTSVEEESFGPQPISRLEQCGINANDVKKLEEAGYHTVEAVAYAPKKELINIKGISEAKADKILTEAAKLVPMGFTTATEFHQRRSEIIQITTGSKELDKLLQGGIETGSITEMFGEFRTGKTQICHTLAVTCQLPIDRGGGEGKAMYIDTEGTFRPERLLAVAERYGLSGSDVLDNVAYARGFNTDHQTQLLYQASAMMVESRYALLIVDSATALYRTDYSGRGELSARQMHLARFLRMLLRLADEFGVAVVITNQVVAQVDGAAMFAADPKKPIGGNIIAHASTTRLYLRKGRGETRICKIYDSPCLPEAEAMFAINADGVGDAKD

How the values were obtained:
[1] = target: T1, SYCE2 (mouse (endogenous in testis)) (UniProt Q505B8); test: co-IP; extracts (0.5 mg-1.5 ml) from adult wild-type and Syce1-/- mouse testes incubated with anti-SYCE2 antibodies (10 ul) or pre-immune serum (5 ul); precipitates analysed by Western blotting (anti-RAD51 or anti-SYCP3); control IP from Syce2-/- testis extract
T1 sequence: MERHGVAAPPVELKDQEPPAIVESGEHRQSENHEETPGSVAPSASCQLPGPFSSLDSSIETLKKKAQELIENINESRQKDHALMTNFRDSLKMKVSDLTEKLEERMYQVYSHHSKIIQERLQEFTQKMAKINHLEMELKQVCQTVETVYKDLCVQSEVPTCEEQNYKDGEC

[2] = target: T1, SYCE2 (mouse (endogenous in testis)); test: as above; remark: listed apart in the source

binding [1]: binds weakly
Molecule: RAD51 (from UniProt Q08297 1-339)

binding [2]: no binding
B1: SYCP3 (protein, UniProt P70281 1-254)
chain: MLRGCGDSDSSPEPLSKHLKMVPGGRKHSGKSGKPPLVDQPKKAFDFEKDDKDLSGSEEDVADEKAPVIDKHGKKRSAGIIEDVGGEVQNMLEKFGADINKALLAKRKRIEMYTKASFKASNQKIEQIWKTQQEEIQKLNNEYSQQFMNVLQQWELDIQKFEEQGEKLSNLFRQQQKIFQQSRIVQSQRMFAMKQIHEQFIKSLEDVEKNNDNLFTGTQSELKKEMAMLQKKVMMETQQQEMANVRKSLQSMLF
